Test results as given in patent US20260248087A1, “GENERATING DOUBLED HAPLOID PLANTS” (Syngenta Crop Protection AG, priority 2023, published 2026).

Tests used:
isolated embryos = assay: Escape rate, thiamethoxam co-treatment during colchicine doubling; assay type: in vivo, maize; conditions: co-treatment with colchicine
embryos from maize ears = assay: Escape rate (lab and greenhouse), co-treatment with metcamifen and thiamethoxam; assay type: in vivo
diploid embryos = assay: Color expression of diploid embryos, co-treatment with benoxacor or dichlormid; assay type: in vivo, maize
[1] = TMX 4000 mg/L, 24 Hour co-treatment with colchicine
[2] = TMX 6000 mg/L, 48 Hour co-treatment with colchicine
[3] = metcamifen 800 mg/L, 24 Hour co-treatment with colchicine
[4] = metcamifen 800 mg/L, 48 Hour co-treatment with colchicine

`CN1COCN(Cc2cnc(Cl)s2)/C1=N\[N+](=O)[O-]` [TMX, thiamethoxam] was tested, and the “24 hr Escape Rate” value (isolated embryos; TMX 2000 mg/L) was 0%, the “48 hr Escape Rate” value (isolated embryos; TMX 2000 mg/L) was 0% and the “24 hr Escape Rate” value (isolated embryos; TMX 4000 mg/L) was 8%. For the same compound, the “48 hr Escape Rate” value (isolated embryos; TMX 4000 mg/L) was 0%, the “24 hr Escape Rate” value (isolated embryos; TMX 6000 mg/L) was 60% and the “48 hr Escape Rate” value (isolated embryos; TMX 6000 mg/L) was 0%. For the same compound, the “24 hr Escape Rate” value (isolated embryos; TMX 8000 mg/L) was 50%, the “48 hr Escape Rate” value (isolated embryos; TMX 8000 mg/L) was 33% and the “Genotype 1 GH Escapes” value (embryos from maize ears; [1]) was 16%. For the same compound, the “Genotype 1 Lab Escapes” value (embryos from maize ears; [1]) was 3%, the “Genotype 1 Total (escapes)” value (embryos from maize ears; [1]) was 19% and the “Genotype 2 GH Escapes” value (embryos from maize ears; [1]) was 0%. The “Genotype 2 Lab Escapes” value (embryos from maize ears; [1]) was 1%, the “Genotype 2 Total (escapes)” value (embryos from maize ears; [1]) was 1% and the “Genotype 1 GH Escapes” value (embryos from maize ears; [2]) was 9%. For the same compound, the “Genotype 1 Lab Escapes” value (embryos from maize ears; [2]) was 9%, the “Genotype 1 Total (escapes)” value (embryos from maize ears; [2]) was 17% and the “Genotype 2 GH Escapes” value (embryos from maize ears; [2]) was 0%. For the same compound, the “Genotype 2 Lab Escapes” value (embryos from maize ears; [2]) was 0% and the “Genotype 2 Total (escapes)” value (embryos from maize ears; [2]) was 0%.
For `CNC(=O)Nc1ccc(S(=O)(=O)NC(=O)c2ccccc2OC)cc1` [Metcamifen, metcamifen], the “Genotype 1 GH Escapes” value (embryos from maize ears; [3]) was 24%, the “Genotype 1 Lab Escapes” value (embryos from maize ears; [3]) was 0% and the “Genotype 1 Total (escapes)” value (embryos from maize ears; [3]) was 24%. For the same compound, the “Genotype 2 GH Escapes” value (embryos from maize ears; [3]) was 0%, the “Genotype 2 Lab Escapes” value (embryos from maize ears; [3]) was 0% and the “Genotype 2 Total (escapes)” value (embryos from maize ears; [3]) was 0%. The “Genotype 1 GH Escapes” value (embryos from maize ears; metcamifen 800 mg/L, 24 Hour co-treatment with colchicine, listed as metcamifen) was 24%, the “Genotype 1 GH Escapes” value (embryos from maize ears; [4]) was 5% and the “Genotype 1 Lab Escapes” value (embryos from maize ears; [4]) was 0%. For the same compound, the “Genotype 1 Total (escapes)” value (embryos from maize ears; [4]) was 5%, the “Genotype 2 GH Escapes” value (embryos from maize ears; [4]) was 0% and the “Genotype 2 Lab Escapes” value (embryos from maize ears; [4]) was 0%. The “Genotype 2 Total (escapes)” value (embryos from maize ears; [4]) was 0%.
In the case of `CC1COc2ccccc2N1C(=O)C(Cl)Cl` (centres unmarked) [Benoxacor, benoxacor], the “color expression (portion of diploid embryos visibly displaying purple pigment)” value (diploid embryos; increasing concentration of benoxacor, 48-hour co-treatment) was “mild decrease in color expression”.
`C=CCN(CC=C)C(=O)C(Cl)Cl` [Dichlormid, dichlormid] was tested, and the “color expression (portion of diploid embryos colored purple)” value (diploid embryos; dichlormid concentrations greater than 100 mg/L) was “steep decrease in color expression”.
